Patent publication US7880021B2, “Compounds and kits for the detection and the quantification of cell apoptosis” (Centre National de la Recherche Scientifique (CNRS), priority 2005, dated 2011)

Experiment: Fluorescence response to surface charge in large unilamellar vesicles
Details: LUV, excitation 400 nm, probe 0.1 μM

Substance: 1-dodecanaminium, N-[[2-[4-Diethylaminophenyl]-3-hydroxychromon-6-yl]-methyl]-N-methyl-N-(3-sulfopropyl)-, inner salt [F2N12S]
- relative intensity of the short-wavelength band, anionic vesicles (PG and PS) versus neutral PC vesicles: higher relative intensity of the short-wavelength band
- relative intensity of the short-wavelength band, neutral PE vesicles: significantly smaller increase
